No constants are given. Whether binding was seen depends on the method and setting. Some results given as binding are weak or reduced against the parent protein; the word gives no strength.
Columns and labels:
[1] = target: T1, acid soluble type I collagen from human placenta (human) (UniProt P02452+P08123); assay: ELISA of plasma VWF bound to immobilized type I collagen
[2] = target: T1, acid soluble type I collagen from human placenta (human); assay: ELISA: mouse platelet poor plasma added to wells coated with type I collagen, bound VWF detected (OD) [panel E]
[3] = target: murine platelet glycoprotein Ib alpha (GPIb α) on mouse platelets (mouse) (UniProt O35930); assay: murine platelets perfused over coverslips coated with VWF-A1, 800 s-1

By UniProt entry, the sequences of proteins in these tests, tags left out. Where a name states a change or a piece, a line headed by the entry shows the natural chain unless it says otherwise. Residues count along the entry.
UniProt O35930, residues 17-734: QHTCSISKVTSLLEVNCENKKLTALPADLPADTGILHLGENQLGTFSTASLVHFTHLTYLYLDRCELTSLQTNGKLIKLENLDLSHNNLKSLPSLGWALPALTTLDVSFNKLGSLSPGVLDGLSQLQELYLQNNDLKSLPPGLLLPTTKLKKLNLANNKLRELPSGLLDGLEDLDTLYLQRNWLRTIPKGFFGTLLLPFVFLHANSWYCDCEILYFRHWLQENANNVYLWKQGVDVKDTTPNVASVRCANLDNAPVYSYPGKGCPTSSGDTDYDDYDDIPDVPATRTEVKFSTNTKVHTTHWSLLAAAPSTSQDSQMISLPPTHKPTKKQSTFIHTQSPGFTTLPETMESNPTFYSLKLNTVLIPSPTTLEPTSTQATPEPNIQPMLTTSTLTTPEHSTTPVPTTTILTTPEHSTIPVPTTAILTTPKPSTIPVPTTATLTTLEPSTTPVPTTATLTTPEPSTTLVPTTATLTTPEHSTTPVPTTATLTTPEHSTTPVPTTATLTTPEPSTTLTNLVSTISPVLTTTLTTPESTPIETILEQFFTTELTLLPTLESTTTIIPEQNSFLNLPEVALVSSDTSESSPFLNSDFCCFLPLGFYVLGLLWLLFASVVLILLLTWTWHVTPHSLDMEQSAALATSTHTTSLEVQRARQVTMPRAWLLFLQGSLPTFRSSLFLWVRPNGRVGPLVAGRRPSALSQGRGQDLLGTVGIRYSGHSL
UniProt Q8CIZ8: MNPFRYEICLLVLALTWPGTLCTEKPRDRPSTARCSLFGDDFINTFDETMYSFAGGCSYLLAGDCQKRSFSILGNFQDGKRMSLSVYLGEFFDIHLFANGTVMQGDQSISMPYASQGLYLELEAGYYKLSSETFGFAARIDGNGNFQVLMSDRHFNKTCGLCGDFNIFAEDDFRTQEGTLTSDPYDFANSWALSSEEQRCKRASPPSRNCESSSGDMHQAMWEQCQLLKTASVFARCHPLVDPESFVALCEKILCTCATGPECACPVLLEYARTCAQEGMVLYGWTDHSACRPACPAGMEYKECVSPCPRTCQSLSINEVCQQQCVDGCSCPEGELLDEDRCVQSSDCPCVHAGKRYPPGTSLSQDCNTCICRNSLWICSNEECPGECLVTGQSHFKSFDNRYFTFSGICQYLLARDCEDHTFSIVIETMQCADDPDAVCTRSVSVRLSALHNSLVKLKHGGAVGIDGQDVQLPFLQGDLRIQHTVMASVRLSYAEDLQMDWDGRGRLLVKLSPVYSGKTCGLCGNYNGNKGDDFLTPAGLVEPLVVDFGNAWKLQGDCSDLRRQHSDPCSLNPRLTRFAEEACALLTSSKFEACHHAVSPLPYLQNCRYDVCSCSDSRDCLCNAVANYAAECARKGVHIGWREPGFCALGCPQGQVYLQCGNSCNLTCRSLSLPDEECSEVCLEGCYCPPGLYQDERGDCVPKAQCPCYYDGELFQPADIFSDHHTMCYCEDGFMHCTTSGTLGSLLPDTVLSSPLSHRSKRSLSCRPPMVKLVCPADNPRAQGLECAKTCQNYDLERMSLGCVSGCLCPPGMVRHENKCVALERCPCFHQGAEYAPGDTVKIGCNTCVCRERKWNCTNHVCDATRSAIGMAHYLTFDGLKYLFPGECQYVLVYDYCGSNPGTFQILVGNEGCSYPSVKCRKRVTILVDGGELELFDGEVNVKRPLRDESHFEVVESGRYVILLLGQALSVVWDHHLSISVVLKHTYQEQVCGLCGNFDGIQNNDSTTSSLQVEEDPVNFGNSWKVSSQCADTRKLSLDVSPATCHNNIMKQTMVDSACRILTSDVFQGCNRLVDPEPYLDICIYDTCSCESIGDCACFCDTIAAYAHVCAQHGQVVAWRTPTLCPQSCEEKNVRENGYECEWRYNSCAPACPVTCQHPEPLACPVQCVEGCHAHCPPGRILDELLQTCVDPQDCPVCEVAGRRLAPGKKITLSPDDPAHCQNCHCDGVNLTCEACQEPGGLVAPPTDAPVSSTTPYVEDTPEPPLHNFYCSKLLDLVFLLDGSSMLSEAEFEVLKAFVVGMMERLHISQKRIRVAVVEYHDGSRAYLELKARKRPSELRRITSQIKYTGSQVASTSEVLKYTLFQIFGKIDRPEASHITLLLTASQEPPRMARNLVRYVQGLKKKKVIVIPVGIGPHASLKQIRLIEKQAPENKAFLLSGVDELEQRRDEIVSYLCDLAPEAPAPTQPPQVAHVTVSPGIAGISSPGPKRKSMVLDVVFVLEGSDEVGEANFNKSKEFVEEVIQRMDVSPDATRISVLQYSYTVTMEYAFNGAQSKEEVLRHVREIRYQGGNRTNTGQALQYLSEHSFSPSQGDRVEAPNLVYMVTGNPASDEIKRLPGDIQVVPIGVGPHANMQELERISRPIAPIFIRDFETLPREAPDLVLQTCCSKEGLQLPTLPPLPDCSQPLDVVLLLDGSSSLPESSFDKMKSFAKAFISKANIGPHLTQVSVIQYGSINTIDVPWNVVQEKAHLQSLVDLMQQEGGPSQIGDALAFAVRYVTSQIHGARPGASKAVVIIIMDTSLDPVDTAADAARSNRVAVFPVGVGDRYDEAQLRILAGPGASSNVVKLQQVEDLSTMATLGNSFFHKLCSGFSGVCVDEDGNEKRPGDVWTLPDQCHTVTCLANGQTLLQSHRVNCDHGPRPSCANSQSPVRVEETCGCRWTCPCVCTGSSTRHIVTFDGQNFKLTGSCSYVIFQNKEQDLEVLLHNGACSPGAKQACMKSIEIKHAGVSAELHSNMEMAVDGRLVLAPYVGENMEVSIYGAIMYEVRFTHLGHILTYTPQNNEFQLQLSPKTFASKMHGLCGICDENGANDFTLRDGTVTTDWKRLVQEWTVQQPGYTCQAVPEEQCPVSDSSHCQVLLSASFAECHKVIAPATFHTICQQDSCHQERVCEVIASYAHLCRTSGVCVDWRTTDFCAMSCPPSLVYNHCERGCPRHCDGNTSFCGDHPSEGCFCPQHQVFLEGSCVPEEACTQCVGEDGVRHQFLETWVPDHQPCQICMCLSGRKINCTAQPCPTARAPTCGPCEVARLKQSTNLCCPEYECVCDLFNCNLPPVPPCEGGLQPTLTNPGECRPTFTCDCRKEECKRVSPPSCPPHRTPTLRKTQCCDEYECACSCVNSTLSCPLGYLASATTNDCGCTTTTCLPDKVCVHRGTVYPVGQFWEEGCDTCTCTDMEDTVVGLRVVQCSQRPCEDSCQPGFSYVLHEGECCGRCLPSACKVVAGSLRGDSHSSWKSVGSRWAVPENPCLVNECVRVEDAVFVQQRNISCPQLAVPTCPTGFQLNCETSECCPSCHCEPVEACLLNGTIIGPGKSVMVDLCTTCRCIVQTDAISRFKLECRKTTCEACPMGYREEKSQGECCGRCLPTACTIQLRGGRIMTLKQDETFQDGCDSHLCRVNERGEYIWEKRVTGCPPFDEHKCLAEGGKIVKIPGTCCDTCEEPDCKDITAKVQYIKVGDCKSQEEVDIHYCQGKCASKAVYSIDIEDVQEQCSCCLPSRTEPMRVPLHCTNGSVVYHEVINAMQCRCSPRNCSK
UniProt P04275: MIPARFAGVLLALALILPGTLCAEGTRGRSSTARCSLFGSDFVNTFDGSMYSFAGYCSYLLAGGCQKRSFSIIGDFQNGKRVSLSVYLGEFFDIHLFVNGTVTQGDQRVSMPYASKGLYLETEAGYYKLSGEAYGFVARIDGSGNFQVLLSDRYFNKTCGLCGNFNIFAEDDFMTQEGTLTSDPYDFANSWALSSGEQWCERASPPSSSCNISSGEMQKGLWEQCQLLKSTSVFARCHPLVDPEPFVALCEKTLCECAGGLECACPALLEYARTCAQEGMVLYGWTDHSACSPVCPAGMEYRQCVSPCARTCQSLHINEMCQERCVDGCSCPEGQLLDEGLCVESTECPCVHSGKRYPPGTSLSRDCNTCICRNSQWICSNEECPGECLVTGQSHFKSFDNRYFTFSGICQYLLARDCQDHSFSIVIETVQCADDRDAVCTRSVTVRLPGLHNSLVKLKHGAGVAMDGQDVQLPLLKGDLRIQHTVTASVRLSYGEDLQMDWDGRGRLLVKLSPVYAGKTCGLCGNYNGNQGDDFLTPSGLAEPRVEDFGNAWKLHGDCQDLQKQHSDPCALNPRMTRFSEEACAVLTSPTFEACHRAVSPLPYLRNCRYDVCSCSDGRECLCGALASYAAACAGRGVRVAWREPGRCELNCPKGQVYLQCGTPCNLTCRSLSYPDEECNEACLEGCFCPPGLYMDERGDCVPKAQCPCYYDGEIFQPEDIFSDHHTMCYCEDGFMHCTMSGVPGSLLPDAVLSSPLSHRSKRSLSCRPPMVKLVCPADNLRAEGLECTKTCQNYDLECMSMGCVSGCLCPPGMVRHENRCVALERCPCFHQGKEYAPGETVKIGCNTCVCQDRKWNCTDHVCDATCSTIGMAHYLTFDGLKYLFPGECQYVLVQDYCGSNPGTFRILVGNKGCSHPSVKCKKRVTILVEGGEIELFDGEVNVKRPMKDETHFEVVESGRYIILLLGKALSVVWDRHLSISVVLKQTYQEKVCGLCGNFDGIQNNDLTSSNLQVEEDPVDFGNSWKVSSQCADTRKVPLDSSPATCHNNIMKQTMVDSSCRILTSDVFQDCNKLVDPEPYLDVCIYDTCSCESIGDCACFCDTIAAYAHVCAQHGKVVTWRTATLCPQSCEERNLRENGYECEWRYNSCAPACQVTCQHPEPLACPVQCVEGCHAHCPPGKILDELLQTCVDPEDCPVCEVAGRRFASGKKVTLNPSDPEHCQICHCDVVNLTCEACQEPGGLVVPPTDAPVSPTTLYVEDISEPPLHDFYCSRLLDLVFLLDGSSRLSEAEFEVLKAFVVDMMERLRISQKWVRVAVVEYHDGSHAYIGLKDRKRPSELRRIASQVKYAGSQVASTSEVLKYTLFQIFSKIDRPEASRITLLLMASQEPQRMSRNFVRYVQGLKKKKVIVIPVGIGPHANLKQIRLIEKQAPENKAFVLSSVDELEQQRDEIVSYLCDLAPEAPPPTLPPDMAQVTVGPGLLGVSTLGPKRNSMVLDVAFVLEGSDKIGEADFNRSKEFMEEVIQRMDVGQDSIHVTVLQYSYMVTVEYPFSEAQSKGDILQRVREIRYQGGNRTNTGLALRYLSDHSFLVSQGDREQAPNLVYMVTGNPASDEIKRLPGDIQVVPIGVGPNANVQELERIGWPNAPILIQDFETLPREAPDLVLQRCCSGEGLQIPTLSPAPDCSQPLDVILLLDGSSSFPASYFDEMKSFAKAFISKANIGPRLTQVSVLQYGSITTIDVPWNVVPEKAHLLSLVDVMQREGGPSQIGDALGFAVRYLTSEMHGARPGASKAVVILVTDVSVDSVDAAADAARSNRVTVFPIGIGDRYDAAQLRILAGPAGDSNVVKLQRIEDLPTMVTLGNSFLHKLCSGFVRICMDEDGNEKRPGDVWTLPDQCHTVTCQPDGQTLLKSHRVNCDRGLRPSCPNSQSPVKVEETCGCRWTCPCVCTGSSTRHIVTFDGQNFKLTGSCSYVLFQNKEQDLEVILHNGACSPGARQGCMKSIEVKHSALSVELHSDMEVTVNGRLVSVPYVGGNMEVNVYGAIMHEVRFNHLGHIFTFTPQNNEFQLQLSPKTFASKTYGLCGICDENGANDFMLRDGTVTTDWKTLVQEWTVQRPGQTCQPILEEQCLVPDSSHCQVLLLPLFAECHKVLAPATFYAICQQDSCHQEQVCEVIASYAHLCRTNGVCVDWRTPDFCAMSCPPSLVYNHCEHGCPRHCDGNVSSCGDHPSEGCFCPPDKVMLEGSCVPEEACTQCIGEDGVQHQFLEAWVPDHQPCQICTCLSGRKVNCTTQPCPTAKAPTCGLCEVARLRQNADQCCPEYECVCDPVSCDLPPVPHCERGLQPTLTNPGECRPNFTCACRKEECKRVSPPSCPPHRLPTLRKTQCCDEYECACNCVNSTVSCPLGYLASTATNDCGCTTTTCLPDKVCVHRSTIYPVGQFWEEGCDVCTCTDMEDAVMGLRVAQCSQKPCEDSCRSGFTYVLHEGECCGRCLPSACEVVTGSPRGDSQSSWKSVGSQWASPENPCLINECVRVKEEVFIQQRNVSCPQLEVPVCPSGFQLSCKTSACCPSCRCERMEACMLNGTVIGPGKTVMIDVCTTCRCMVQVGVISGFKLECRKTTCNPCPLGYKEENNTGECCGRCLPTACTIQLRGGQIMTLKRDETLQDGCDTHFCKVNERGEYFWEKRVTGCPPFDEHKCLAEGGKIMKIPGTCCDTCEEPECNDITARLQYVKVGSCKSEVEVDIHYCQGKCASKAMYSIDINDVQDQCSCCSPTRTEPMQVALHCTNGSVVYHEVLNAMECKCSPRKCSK

| binding [1] | binding [2] | binding [3] | Substance |
| --- | --- | --- | --- |
| binds | binds | – | murine plasma VWF containing the 1326R>H mutation (VWF^1326R>H) (from UniProt Q8CIZ8 764-2813) (ligand) |
| binds | binds | – | murine plasma von Willebrand factor (VWF), wild type (from UniProt Q8CIZ8 764-2813) (ligand) |
| – | – | no binding (tested: 100 µg/ml coating) | recombinant wild-type human VWF-A1 protein (residues 1238 to 1472), Examples 1-2 (from UniProt P04275 1238-1471) (ligand) |
